Results are given in words; binding and its absence hold for the method and conditions named. Some results given as binding are weak or reduced against the parent protein; the word gives no strength.
How the values were obtained:
[1] = target: His6-UL44 (human cytomegalovirus (HCMV)) (UniProt P16790); experiment: pull-down; 15 µg His6-UL44 immobilised on Dynabeads His-Tag; 20 µg GST-SMARCB1 or GST in pull-down buffer (6.5 mM Na-phosphate pH 7.4, 140 mM NaCl, 50 mM imidazole, 0.01% Tween-20); SDS-PAGE, Coomassie blue; both purified
[2] = target: GST-SMARCB1 (human full-length SMARCB1 in pDEST15) (human) (UniProt Q12824); experiment: pull-down; 10 µg purified GST-SMARCB1 on BcMag GST magnetic beads, 20 µg purified recombinant UL114 added; western blot; both purified

Chains of the proteins cited; added tags and fusions are not shown.
UniProt P16790: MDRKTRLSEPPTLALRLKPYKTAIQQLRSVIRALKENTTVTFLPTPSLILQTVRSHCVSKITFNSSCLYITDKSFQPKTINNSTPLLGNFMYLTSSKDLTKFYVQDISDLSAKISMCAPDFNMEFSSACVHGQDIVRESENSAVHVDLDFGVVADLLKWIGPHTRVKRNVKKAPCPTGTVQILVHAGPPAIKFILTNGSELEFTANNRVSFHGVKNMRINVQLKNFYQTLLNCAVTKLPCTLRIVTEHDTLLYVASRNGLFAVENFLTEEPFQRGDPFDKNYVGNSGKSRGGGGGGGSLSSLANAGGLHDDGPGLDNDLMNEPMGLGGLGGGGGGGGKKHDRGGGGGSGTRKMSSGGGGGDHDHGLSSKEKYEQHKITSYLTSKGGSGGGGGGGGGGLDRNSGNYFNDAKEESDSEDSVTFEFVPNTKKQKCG
UniProt Q12824: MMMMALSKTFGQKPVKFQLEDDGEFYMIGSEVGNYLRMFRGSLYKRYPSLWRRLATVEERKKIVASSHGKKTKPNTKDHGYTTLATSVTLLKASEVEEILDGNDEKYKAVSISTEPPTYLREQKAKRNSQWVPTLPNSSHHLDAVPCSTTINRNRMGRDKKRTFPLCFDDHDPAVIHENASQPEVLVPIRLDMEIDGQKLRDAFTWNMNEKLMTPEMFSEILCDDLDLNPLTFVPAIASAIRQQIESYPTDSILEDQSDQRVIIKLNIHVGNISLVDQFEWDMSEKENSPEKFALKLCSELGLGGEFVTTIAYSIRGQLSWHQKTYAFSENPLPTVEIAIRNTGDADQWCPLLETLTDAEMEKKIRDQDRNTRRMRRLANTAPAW

## GST-SMARCB1 (human full-length SMARCB1 in pDEST15) (from UniProt Q12824 1-385)
[1]
  binding: binds

B1: purified recombinant UL114 (enzyme, UniProt P16769 1-250)
chain: MALKQWMLANIADNKGSLLTPDEQARVFCLSADWIRFLSLPDHDTVLLRDTVAAVEGARQLEMVYPAPEHVHRWSYLCPPEQVRVVIVGQDPYCDGSASGLAFGTLAGRPPPPSLNNVFRELARTVDGFQRPASGCLDAWARRGVLLLNTVFTVVHGQPGSHRHLGWQTLSNHVIRRLSERREHLVFMLWGADAHTCEYLIDRRRHLVLKSCHPSPRNTTRAFVGNDHFILANAYLDTHYRETMDWRLCG
[2]
  binding: binds

From PMC3313996
